We go through 8 molecules from PubChem BioAssay AID1745853 (National Center for Advancing Translational Sciences (NCATS), 2022).

The chains behind the UniProt entries cited, without tags or fusion partners.
UniProt Q14749, whole entry: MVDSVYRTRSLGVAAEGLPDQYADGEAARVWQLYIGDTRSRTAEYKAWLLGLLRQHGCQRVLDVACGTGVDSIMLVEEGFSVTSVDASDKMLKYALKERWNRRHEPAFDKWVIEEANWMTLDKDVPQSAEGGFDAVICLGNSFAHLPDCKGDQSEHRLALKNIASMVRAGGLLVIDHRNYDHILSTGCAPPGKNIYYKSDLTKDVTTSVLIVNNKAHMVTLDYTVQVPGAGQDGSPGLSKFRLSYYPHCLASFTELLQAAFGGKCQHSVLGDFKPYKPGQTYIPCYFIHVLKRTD
UniProt P50135, whole entry: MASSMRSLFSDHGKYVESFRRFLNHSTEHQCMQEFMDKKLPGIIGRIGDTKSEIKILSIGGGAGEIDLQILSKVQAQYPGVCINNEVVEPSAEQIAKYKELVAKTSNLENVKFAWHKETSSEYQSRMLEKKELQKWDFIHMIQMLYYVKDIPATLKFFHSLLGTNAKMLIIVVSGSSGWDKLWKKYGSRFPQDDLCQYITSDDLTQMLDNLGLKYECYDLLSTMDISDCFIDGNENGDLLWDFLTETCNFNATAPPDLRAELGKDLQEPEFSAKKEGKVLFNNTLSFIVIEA
UniProt P40261, whole entry: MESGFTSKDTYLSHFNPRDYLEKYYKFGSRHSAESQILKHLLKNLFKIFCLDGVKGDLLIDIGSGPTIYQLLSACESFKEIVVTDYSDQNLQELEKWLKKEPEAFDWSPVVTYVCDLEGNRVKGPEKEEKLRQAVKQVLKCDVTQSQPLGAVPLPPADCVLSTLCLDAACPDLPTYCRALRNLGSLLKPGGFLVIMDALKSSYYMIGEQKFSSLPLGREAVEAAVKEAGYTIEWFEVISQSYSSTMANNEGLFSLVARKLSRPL
UniProt P11086, whole entry: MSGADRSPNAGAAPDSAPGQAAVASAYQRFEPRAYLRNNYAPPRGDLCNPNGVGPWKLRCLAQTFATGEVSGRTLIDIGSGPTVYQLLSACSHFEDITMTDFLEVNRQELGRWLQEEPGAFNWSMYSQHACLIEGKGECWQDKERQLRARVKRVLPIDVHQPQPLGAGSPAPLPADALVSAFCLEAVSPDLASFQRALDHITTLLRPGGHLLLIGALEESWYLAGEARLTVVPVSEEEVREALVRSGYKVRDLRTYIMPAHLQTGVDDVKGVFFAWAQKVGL

Structures are written as SMILES. The list shows a part of the results. Some structures show a salt or complex split into parts, the way the source records it.

What all share (test): Primary Screen for Target Class Profiling of Small Molecule Inhibitors of Methyltransferases
For assay [1], the target named is Glycine N-methyltransferase (Homo sapiens) (UniProt Q14749). The note with it: purified enzyme, MTase-Glo SAH luminescence; measured here: GNMT inhibition; at 40 µM; stronger effect = lower value. From the text:
(§1) PI: Matthew D. Hall Ph.D. and Quinlin M. Hanson Ph.D.
(§2) National Center for Advancing Translational Sciences (NCATS)
(§3) National Institute of Health (NIH), Rockville, MD
(§4) Target class profiling (TCP) is a chemical biology approach amenable to investigating understudied biological targets. TCP is achieved by developing a generalizable assay platform and applying it to screen a curated set of compound libraries against representative members of a target class. Small molecule methyltransferases (SMMTase) are a subclass of methyltransferase that act on metabolites to modulate signaling pathways, metabolize xenobiotics, or balance the available methyl pool. We screened four curated libraries totaling 27,574 unique compounds against the SMMTases nicotinamide N-methyltransferase (NNMT), phenylethanolamine N-methyltransferase (PNMT), histamine N-methyltransferase (HNMT), glycine N-methyltransferase (GNMT), catechol O-methyltransferase (COMT), and guanidinoacetate N-methyltransferase (GAMT). The data generated by this TCP can be leveraged for informed tool molecule development. For example, in the associated publication we identified a chemotype of HNMT-selective inhibitors. Additionally, we identified a putative SMMTase-selective inhibitor with potential as a tool molecule for studying broader methyltransferase biology.
(§5) High-through put screening assays were developed at the National Center for Advancing Translational Science (NCATS) for the enzymes NNMT, PNMT, HNMT, GNMT, COMT, and GAMT. Enzymatic activity was measured as a function of SAM cofactor conversion using the MTase Glo kit (Promega) for all enzymes. All assays were performed in 1536-well format with substrates and SAM concentrations at KM values. Enzyme concentration and assay timing were optimized for 10-20% SAM conversion. Initial screening of 27,574 compounds was done as single-point assays using the highest compound concentration (40 uM). […] These compounds were replated in 11-point dose response and assayed against NNMT, PNMT, HNMT, GNMT, COMT, GAMT, and a counter-assay. The IC50 and efficacy (maximal response) values were determined for each dose-response curve. These values are also accounted for in the area under the curve (AUC) values.
(§6) PROTOCOL TABLE (as described by Inglese J, Shamu CE and Guy RK. 2007)
(§7) SEQUENCE No. (e.g., 1, 2, 3, etc.); […] (e.g., Cells, Incubation, Reagent, etc.); VALUE; DESCRIPTION.
(§8) 1; Reagent; 2 uL; SMMTase Enzyme (2x) in reaction buffer, columns 1- 48.
(§9) 2; Reagent; 1 uL; SAM (4x) in reaction buffer, columns 1-48.
(§10) 3; Controls; 23 nL; DMSO in column 4; sinefungin in DMSO (0 uM - 40 uM) in 7-point 1:2 dilution series (n = 2) in column 2.
(§11) 4; Compounds; 23 nL; Columns 5-48.
(§12) 5; Reagent; 1 uL; Substrate (4x) in reaction buffer, columns 2-48.
(§13) 6; Time; 20-30 min; Incubation.
(§14) 7; Reagent; 1 uL; MTase-Glo reagent (5X), columns 1-48.
(§15) 8; Time; 30 min; Incubation.
(§16) 9; Reagent; 5 uL; MTase-Glo Detection reagent, columns 1-48.
(§17) 10; Time; 30 min; Incubation, luminescence evolution.
(§18) 11; Detection; Luminescence; ViewLux uHTS Microplate Imager (PerkinElmer).
(§19) NOTES (numbers refer to Sequence numbers above)
(§20) 1, 2, 5. White Medium Binding Greiner 1536-well plates (Cat #789175-F, Greiner Bio-One, Monroe, NC); Reaction buffer: 50 mM Tris, pH 8.0, 3 mM MgCl2, 1 mM EDTA, 50 mM NaCl, 1 mM DTT, and 0.1 mg/mL BSA. Evaporation was prevented by covering assay plates with metal lids containing holes to allow gas diffusion.
(§21) 1. Six SMMTase were profiled: HNMT, GNMT, PNMT, COMT, NNMT, GAMT
(§22) 5. The corresponding substrate was used for each enzyme: HNMT - 5.3 uM Histamine; GNMT - >500 uM Glycine; PNMT - 16.2 uM Norephinephrine; COMT - 13.7 uM Norephinephrine; NNMT - 3.8 uM Nicotinamide; GAMT - 2.5 uM Guanidinoacetate.6, 8, 10. Room temperature
(§23) 6. Final reaction conditions: 10 nM COMT, 5 uM SAM, 15 uM norepinephrine, 50 mM Tris, pH 8.0, 3 mM MgCl2, 1 mM EDTA, 50 mM NaCl, 1 mM DTT, and 0.1 mg/mL BSA; refer to tables 2 and S1 for specific timing.
8. […]

The target of assay [2] is Guanidinoacetate N-methyltransferase (Homo sapiens) (UniProt Q14353). The note with it: purified enzyme, MTase-Glo SAH luminescence; measured here: GAMT inhibition; at 40 µM; stronger effect = lower value.
Source text: as §1, §2, §3, §4, §5, §6, §7, §8, §9, §10, §11, §12, §13, §14, §15, §16, §17, §18, §19, §20, §21, §22, §23
8. […]

Assay [3] has as its target Histamine N-methyltransferase (Homo sapiens) (UniProt P50135). The conditions noted are these: purified enzyme, MTase-Glo SAH luminescence; measured here: HNMT inhibition; at 40 µM; stronger effect = lower value.
Source text: as §1, §2, §3, §4, §5, §6, §7, §8, §9, §10, §11, §12, §13, §14, §15, §16, §17, §18, §19, §20, §21, §22, §23
8. […]

For assay [4], the target named is Nicotinamide N-methyltransferase (Homo sapiens) (UniProt P40261). The conditions noted are these: purified enzyme, MTase-Glo SAH luminescence; measured here: NNMT inhibition; at 40 µM; stronger effect = lower value.
Source text: as §1, §2, §3, §4, §5, §6, §7, §8, §9, §10, §11, §12, §13, §14, §15, §16, §17, §18, §19, §20, §21, §22, §23
8. […]

Assay [5] concerns the target Phenylethanolamine N-methyltransferase (Homo sapiens) (UniProt P11086). The note with it: purified enzyme, MTase-Glo SAH luminescence; measured here: PNMT inhibition; at 40 µM; stronger effect = lower value.
Source text: as §1, §2, §3, §4, §5, §6, §7, §8, §9, §10, §11, §12, §13, §14, §15, §16, §17, §18, §19, §20, §21, §22, §23
8. […]
% is set by controls: 0 for no effect and ±100 for the full control effect.

On to `C/C1=C2N=C(/C=C3N=C(/C(C)=C4\N=C(C(CC(N)=O)C4(C)CCC(=O)NCC(C)OP(=O)([O-])OC4C(CO)OC(n5cnc6cc(C)c(C)cc65)C4O)C4(C)N=C1C(CCC(N)=O)C4(C)CC(N)=O)C(CCC(N)=O)C\3(C)C)C(CCC(N)=O)C/2(C)CC(N)=O.[C-]#N.[Co]` (centres undefined), for which the activity change, negative = inhibition in assay [1] was -86.4%; in assay [2], -28.5%; in assay [3], -30.2%; in assay [4], -33.8%; in assay [5], -24.7%.
In the same order, the values of `CN(C(=O)Cc1ccccc1)[C@@H]1CC[C@]2(CCCO2)C[C@H]1N1CCCC1` are 4.28%, 13.3%, 13.7%, -5.73% and -1.28%.
In the same order, the values of `CCn1c(=O)n([C@@H]2CCN(CC3CCCCCCC3)C[C@H]2CO)c2ccccc21` are -4.43%, 3.82%, 5.78%, -18.1% and -3.24%.
As to `CN(C(=O)Cc1ccc(Cl)c(Cl)c1)[C@@H]1CC[C@]2(CCCO2)C[C@H]1N1CCCC1`, the activity change, negative = inhibition in assay [1] is 1.57%; in assay [2], 12.3%; in assay [3] it was -0.23%; in assay [4] it was -7.26%; in assay [5], 7.79%.
As for `CCOP(=O)(CC)Oc1ccc([N+](=O)[O-])cc1` (centres undefined), the activity change, negative = inhibition in assay [1] was -3.92%; in assay [2] it was 0.457%; in assay [3] it was 6.08%; in assay [4], -10.6%; in assay [5], -2.16%.
Regarding `CN(C)C1(c2ccccc2)CCC2(CC1)OCCc1c2[nH]c2ccc(F)cc12` (centres undefined), the activity change, negative = inhibition in assay [1] is 2.72%; in assay [2], 0.552%; in assay [3], -8.59%; in assay [4], -11.8%; in assay [5], -2.52%.
With `N[C@@H](Cc1ccc([N+]([O-])(CCCl)CCCl)cc1)C(=O)O`, the activity change, negative = inhibition in assay [1] is 1.33%; in assay [3], 7.4%; in assay [4], -29.4%; in assay [5] it was -15.9%.
For the molecule `O=C(O[C@H]1CN2CCC1CC2)C1NCc2ccccc2[C@@H]1c1ccccc1` (some centres undefined), the activity change, negative = inhibition was -5.32% in assay [1]; -11.3% in assay [2]; -12.7% in assay [3]; -19.1% in assay [4]; -11.2% in assay [5].
